Here are results for one compound from PubChem BioAssay AID328 (DTP/NCI, 2004).

The experiment deals with BDF1 mice, P388 leukemia ip, median survival T/C. Kind of experiment: NCI In Vivo Anticancer Drug Screen. Data for tumor model P388 Leukemia (intraperitoneal) in B6D2F1 (BDF1) mice. To be noted: T/C endpoint: median survival time, schedule: Q04DX003 (ip), vehicle: saline with Tween-80, higher T/C = longer survival. The procedure, abridged: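 In tumour-bearing mice, survival after compound treatment is set against the vehicle group and given as a quotient.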

Molecules are shown by their SMILES. The list is a part of this screen's results and no random one: it is rich in T/C values a quarter to a half above the control, in often repeated tests (any T/C) and in doses without a T/C. Further doses and runs are listed elsewhere. T/C: endpoint of the treated group in % of that of the vehicle group. Where survival is the endpoint, this PubChem deposit counts one and a half times the control or more as active, and values a quarter to a half above the control carry no call in these data; other NCI protocols may use other cut-offs. Schedules are NCI's codes, read here as Q, the interval in days (D) or hours (H), X, the number of doses.

For the compound `COC1CC(N=[N+]=[N-])C(O)C(C)O1` (configuration not stated), the T/C is, setting by setting: (dose: 200.0 mg/kg/injection) 125 % of control; (dose: 400.0 mg/kg/injection) 130 % of control.
